Data as given in PubChem BioAssay AID652272 (Drosophila RNAi Screening Center, 2013).
Test: 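Genes whose knock-down decreases or increases Hedgehog reporter output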 (primary screen). Cells: Drosophila clone 8 (Cl8) cells. Knock-down reagent: long dsRNA against Drosophila genes. Detection: 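Firefly light from a Hedgehog-responsive ptc promoter reporter and Renilla reference light, both read on a plate reader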. Direction: firefly Hh reporter signal: higher = more ptc reporter light; Renilla reference signal: higher = more Renilla control light. Active means: 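Called a hit if the two-replicate mean z-score lies below -2 or above +3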. Calls: active = hit: reporter lowered or raised; inactive = not a hit.
The deposit covers about 21,000 reagents; this is a random part of those that have a named target and a result. Over the whole deposit, 503 (2.4%) were called active. 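Raw plate light values, not normalised; calls rest on replicate z-scores that were not deposited; hits include reporter decreases as well as increases.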 Reagents against one gene are numbered here. A plus sign joins genes that one reagent is predicted to hit. Not stated in the record: the amount of reagent, the time to read-out.

predicted target | reagent | firefly Hh reporter signal, replicate 1 | firefly Hh reporter signal, replicate 2 | firefly Hh reporter signal, replicate 3 | Renilla reference signal, replicate 1 | Renilla reference signal, replicate 2 | call
Alas | 1 | 65552 | 56208 | – | 2707 | 2219 | inactive
CG6689 | 1 | 90097 | 78379 | – | 3169 | 2471 | inactive
CG13358 | 1 | 91968 | 2.42e5 | – | 3225 | 7456 | inactive
CR17438 | 1 | 86768 | 3.06e5 | – | 2816 | 10907 | inactive
FAM21 | 1 | 88936 | 81659 | – | 4644 | 3746 | inactive
CG13442 | 1 | 79925 | 54676 | – | 3160 | 3962 | inactive
CG15468 | 1 | 77114 | 1.82e5 | – | 2952 | 6849 | inactive
Tsc1 | 1 | 1.02e5 | 87829 | – | 4016 | 3257 | inactive
CG3502 + CG9863 | 1 | 71189 | 42880 | – | 1462 | 4448 | inactive
CG18810 | 1 | 73955 | 57227 | – | 1833 | 5169 | inactive
Frmd5 | 1 | 1.05e5 | 45493 | – | 3242 | 4913 | inactive
mirr | 1 | 64935 | 34173 | 65269 | 3226 | 4786 | inactive
Brf | 1 | 49025 | 2.60e5 | – | 11059 | 4107 | inactive
Brf | 2 | 84947 | 84533 | – | 1932 | 2105 | inactive
Brf | 3 | 71030 | 60460 | – | 1984 | 1633 | inactive
CG10428 | 1 | 74681 | 71041 | – | 3298 | 3160 | inactive
CG43106 | 1 | 93680 | 76187 | – | 1911 | 6565 | inactive
hbn | 1 | 32562 | 37378 | – | 920 | 2455 | inactive
hbn | 2 | 1.61e5 | 6.36e5 | 1.32e5 | 3984 | 35117 | inactive
hbn | 3 | 1.08e5 | 87744 | – | 2776 | 6365 | inactive
Plp | 1 | 1.54e5 | – | – | 6944 | 4390 | inactive
Plp | 2 | 90292 | – | – | 1997 | 2388 | inactive
Plp | 3 | 69296 | 59942 | – | 2728 | 2756 | inactive
CG33160 | 1 | 87277 | 32384 | – | 3315 | 2811 | inactive
ftz | 1 | 1.04e5 | 1.77e5 | – | 3698 | 5095 | inactive
CG5773 | 1 | 89649 | 62989 | – | 2387 | 4552 | inactive
msl-2 | 1 | 99941 | 66480 | – | 4933 | 2912 | inactive
CG16852 | 1 | 1.09e5 | 45179 | – | 3170 | 3941 | inactive
Prp19 | 1 | 73475 | 57300 | – | 2387 | 4617 | inactive
CG42699 | 1 | 88672 | 68759 | – | 2027 | 1770 | inactive
CG42699 | 2 | 1.40e5 | 3.32e5 | – | 4740 | 12071 | inactive
Ugt49B2 | 1 | 5.23e5 | 1.81e5 | – | 24315 | 3751 | inactive
CG5274 | 1 | 76771 | 90029 | – | 3500 | 3936 | inactive
CG10749 | 1 | 14184 | 22071 | 38968 | 3219 | 2913 | inactive
sp3 | 1 | 7.51e5 | 1.60e5 | – | 44985 | 3060 | inactive
Pmvk | 1 | 97024 | 67523 | – | 2384 | 5658 | inactive
Nost | 1 | 64306 | 2.90e5 | – | 2269 | 10341 | inactive
Nost | 2 | 91467 | 2.21e5 | – | 4033 | 9147 | inactive
betaGlu | 1 | 81040 | 57572 | – | 2075 | 2080 | inactive
CG11037 | 1 | 1.24e5 | 1.25e5 | – | 4715 | 3961 | inactive
RabX5 | 1 | 76581 | 38373 | – | 2432 | 3001 | inactive
CG34148 + P5CDh2 | 1 | 68096 | 3.17e5 | – | 14364 | 7613 | inactive
CG6179 | 1 | 65840 | 1.94e5 | – | 1405 | 8229 | inactive
Psa | 1 | 1.08e5 | 84827 | – | 4996 | 3516 | inactive
amon | 1 | 49084 | 2.03e5 | – | 11561 | 4188 | inactive
amon | 2 | 1.03e5 | 4.76e5 | 1.25e5 | 3052 | 3474 | inactive
vig | 1 | 1.52e5 | 6.28e5 | 82140 | 4121 | 35320 | inactive
vig | 2 | 55208 | 32592 | – | 2221 | 1371 | inactive
su(f) | 1 | 53334 | 1.25e5 | – | 1170 | 7111 | inactive
CG9098 | 1 | 2.76e5 | 8.24e5 | 1.35e5 | 9248 | 43301 | inactive
CG7222 | 1 | 1.36e5 | 80293 | – | 5521 | 2823 | inactive
CG10646 | 1 | 6.07e5 | 96794 | – | 4008 | 4008 | inactive
COX4 | 1 | 68848 | 29824 | – | 2036 | 1433 | inactive
Hmr | 1 | 44080 | 1.91e5 | – | 1318 | 7264 | inactive
CG31104 | 1 | 5.26e5 | 1.11e5 | – | 25124 | 3172 | inactive
boi | 1 | 90624 | 2.29e5 | – | 3274 | 8088 | inactive
boi | 2 | 58636 | 2.07e5 | – | 2469 | 7041 | inactive
Nnk | 1 | 5.13e5 | 95104 | – | 30468 | 2588 | inactive
retm | 1 | 64800 | 86840 | – | 2678 | 3628 | inactive
CG9555 | 1 | 83977 | 37936 | – | 2160 | 3760 | inactive
CG43393 | 1 | 1.12e5 | 2.06e5 | – | 2820 | 8103 | inactive
Vsx2 | 1 | 5.31e5 | 3.54e5 | 1.37e5 | 4224 | 23818 | inactive
Vsx2 | 2 | 29947 | 64864 | – | 1671 | 3872 | inactive
Vsx2 | 3 | 78387 | 4.35e5 | 2.35e5 | 3179 | 4179 | inactive
Vsx2 | 4 | 2.23e5 | 1.28e5 | 3.47e5 | 2578 | 4464 | active
TwdlF | 1 | 1.04e5 | 75405 | – | 4347 | 3255 | inactive
CG1582 | 1 | 1.13e5 | 87345 | – | 2746 | 2096 | inactive
CG5439 | 1 | 78992 | 51674 | – | 3213 | 2499 | inactive
Ance-4 | 1 | 86418 | 45062 | – | 1896 | 3780 | inactive
twi | 1 | 65882 | 47416 | – | 1424 | 4742 | inactive
CG8738 | 1 | 88445 | 43754 | – | 2229 | 3511 | inactive
CG14183 | 1 | 1.17e5 | 81217 | – | 4624 | 3204 | inactive
CG7786 | 1 | 1.06e5 | 72825 | – | 2820 | 4247 | inactive

Entries above with an active call (1):
predicted target | reagent | firefly Hh reporter signal, replicate 1 | firefly Hh reporter signal, replicate 2 | firefly Hh reporter signal, replicate 3 | Renilla reference signal, replicate 1 | Renilla reference signal, replicate 2 | call
Vsx2 | 4 | 2.23e5 | 1.28e5 | 3.47e5 | 2578 | 4464 | active
